# From paper PMC10893103, “Cyclodextrin-Enabled Enantioselective Complexation Study of Cathinone Analogs” (Molecules, 2024)
# How the values were obtained:
# [1] = Chiral CE enantioseparation screening, pH 4.5
# [2] = Chiral CE enantioseparation screening, pH 4.5; remark: listed apart in the source
# [3] = Chiral CE enantioseparation screening, pH 4.5; remark: listed apart in the source
# [4] = Chiral CE enantioseparation screening, pH 4.5; remark: listed apart in the source
# [5] = Affinity capillary electrophoresis (ACE), pH 7.4; conditions: 30 mM phosphate buffer pH 7.4; at the optimal CD concentration printed in brackets beside the value
# How it was run: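 Mobility-shift ACE of cathinone analogues with cyclodextrins (0.25–20 mM in BGE) in 30 mM phosphate pH 7.4, 25 °C, fused-silica capillary, 15 kV, UV 215 nm, DMSO as EOF marker. Mobilities obtained by HVL peak fitting; complex stability constants corrected for viscosity and ionic strength.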
# [6] = Chiral CE enantioseparation screening, pH 4.5; remark: listed apart in the source
# [7] = 20 mM acetate buffer pH 4.5, CD 1 mM
# [8] = 20 mM acetate buffer pH 4.5, CD 5 mM
# [9] = 20 mM acetate buffer pH 4.5, CD 10 mM
Substance,"Enantioseparation (Rs) of Butylone [1, 7]","Enantioseparation (Rs) of Butylone [1, 8]","Enantioseparation (Rs) of Butylone [1, 9]","Enantioseparation (Rs) of 4-MEC [2, 7]","Enantioseparation (Rs) of 4-MEC [2, 8]","Enantioseparation (Rs) of 4-MEC [2, 9]","Enantioseparation (Rs) of Mephedrone [3, 7]","Enantioseparation (Rs) of Mephedrone [3, 8]","Enantioseparation (Rs) of Mephedrone [3, 9]","Enantioseparation (Rs) of Flephedrone [4, 7]","Enantioseparation (Rs) of Flephedrone [4, 8]","Enantioseparation (Rs) of Flephedrone [4, 9]",4-MEC maximal enantioresolution Rs [5],Butylone maximal enantioresolution Rs [5],MDPV maximal enantioresolution Rs [5],Mephedrone maximal enantioresolution Rs [5],"Enantioseparation (Rs) of MDPV [6, 8]","Enantioseparation (Rs) of MDPV [6, 9]",Flephedrone maximal enantioresolution Rs [5],"Enantioseparation (Rs) of MDPV [6, 7]"
sulfobutyl-ether-α-CD [SBE-α-CD],0.4,0.9,1.5,0.9,1.6,2.2,1.5,1.8,2.3,0.3,0.4,0.5,2.1,1.1,0.5,2.5,0.5,0.8,–,–
sulfobutyl-ether-β-CD [SBE-β-CD (DS~6.5)],0.5,0.4,0.6,0.5,1.2,1.5,0.4,0.7,0.8,0.3,0.5,0.4,1.4,0.7,1.1,0.6,1.0,1.4,1.0,0.7
sulfobutyl-ether-γ-CD [SBE-γ-CD],0,0.5,0.8,0,1.1,1.1,0,1.1,0.9,0,0,0,–,0.6,–,0.5,0.6,0,–,0
sulfopropylated-β-CD [SP-β-CD (DS~4)],0.5,0.3,0,0,0.3,0.4,0,0.4,0.5,0,0,0,–,–,–,0.5,0.4,0.6,–,0.3
